Test results published in PubChem BioAssay AID2685 (National Center for Advancing Translational Sciences (NCATS), 2010).
The list shows a part of the results. These are further read-outs of the screen, such as a control signal, another cell line or another target. No call is given for them. Compounds called inactive in the main read-out are mostly missing here. The note in brackets gives the kind of curve behind each potency; many fits are weak.

Experiment: qHTS Assay for Lipid Storage Modulators in Drosophila S3 Cells;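 for cell number change: cells counted by Cell Tracker Red CMTPX staining in the red channel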
Conditions: BODIPY lipid droplet fluorescence, 18-24 h; for cell number change: measured here: cell count max response, cells fed with added oleic acid
Outline: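 Drosophila S3 cells loaded with oleic acid (400 uM, as added) and compounds at several concentrations; lipid droplets imaged by 488-nm laser-scanning cytometry, 500–530 nm intensity and object ratio to cell channel. Percent activity normalized to 20 uM Triacsin C.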

[1] = measured here: cell number channel AC50, cells fed with added oleic acid
[2] = measured here: lipid fluorescence (Fed channel) AC50, cells fed with added oleic acid

Cc1ccc2[nH]c(CCN(C)C)c(CC#N)c2c1
AC50 [1]: 3.66 µM [falling, single point]

Cc1ccc(C(=O)COC(=O)c2cc(Cl)nc3ccccc23)cc1
AC50 [1]: 0.326 µM [falling, partial curve, poor fit]

Cn1c(N)c(C(=O)COC(=O)c2cc(C(F)(F)F)nc3ccccc23)c(=O)n(C)c1=O
cell number change: 12.1%
AC50 [2]: 5.8 µM [rising, partial curve, poor fit]

CCC(C)NC(=O)C1CCC(CNS(=O)(=O)c2ccccc2)CC1 (centres undefined)
cell number change: -20.4%
AC50 [1]: 0.82 µM [falling, full curve, poor fit]
AC50 [2]: 23.1 µM [falling, single point]

CC12CCC(=O)N1C(C(=O)Nc1ccc(Cl)c(Cl)c1)CS2 (centres undefined)
cell number change: 24.9%

CCN(CC)c1ccc2cc(-c3nc(-c4ccc(OC)cc4)cs3)c(=O)oc2c1
cell number change: -102%
AC50 [1]: 4.61 µM [falling, full curve]
AC50 [2]: 2.06 µM [falling, full curve]

CC1(C)Cc2c(sc3c2c(=O)n(-c2cccc(Cl)c2)c(=O)n3CC(N)=O)CO1
cell number change: -12.4%
AC50 [2]: 29.1 µM [rising, single point]

COc1ccccc1NC(=O)CSc1ccc2nnc(CCNC(=O)c3ccccc3)n2n1
cell number change: -15.3%
AC50 [2]: 32.6 µM [falling, partial curve, poor fit]

COc1ccc(N/N=C(\C=N\O)C(=O)c2ccc(OC)cc2)cc1
AC50 [1]: 6.51 µM [rising, single point]
AC50 [2]: 0.13 µM [falling, full curve, poor fit]

Cc1cc(C(=O)COC(=O)c2cc(Cl)c(O)c(Cl)c2)c(C)n1C
cell number change: 21.8%
AC50 [2]: 1.84 µM [rising, partial curve, poor fit]

CC(=O)Nc1ccc(NC(=O)C(C)OC(=O)CNC(=O)c2sc3ccccc3c2Cl)cc1 (centres undefined)
cell number change: -32%
AC50 [1]: 29.1 µM [falling, single point]
AC50 [2]: 23.1 µM [falling, partial curve, poor fit]

CN(C)/C(CN1CCOCC1)=C1\N=C(c2ccccc2)OC1=O
cell number change: 32.8%
AC50 [1]: 5.8 µM [rising, partial curve, poor fit]

Cc1ccc(N(C)C(=O)C2CCN(S(=O)(=O)c3ccc4c(c3)oc(=O)n4C)CC2)cc1
cell number change: 28.7%

CC1CCCCN1C(=O)C1CCCN(S(=O)(=O)c2cccc3nsnc23)C1 (centres undefined)
cell number change: -11.3%
AC50 [2]: 2.91 µM [falling, partial curve]

Cc1cc(C)n2nc(CC(=O)NNC(=O)COc3ccccc3)nc2n1
cell number change: -26.4%
AC50 [1]: 0.0231 µM [falling, full curve, poor fit]
